Measurements taken from patent publication US20130130175A1, “Compound for Photoacid Generator, Resist Composition Using the Same, and Pattern-Forming Method” (CENTRAL GLASS COMPANY, LIMITED, priority 2007, published 2013).

Test: Photo acid generation function (actinometry of acid generation, quantum yield)
Assay type: physicochemical
Settings: 0.05 mol/L acetonitrile solution, 290 nm light from xenon lamp, acid observed by tetrabromophenol blue absorption at 610 nm

SMILES	quantum yield of acid generation
O=C(OCC(F)(F)S(=O)(=O)O)C12CC3CC(CC(O)(C3)C1)C2 [Synthesis Example 11, triphenylsulfonium 2-(3′-hydroxy-1′-adamantane)carbonyloxy-1,1-difluoroethanesulfonate]	0.20
O=C(OCC(F)(F)S(=O)(=O)O)C12CC3CC(CC(C3)C1)C2 [Synthesis Example 8, triphenylsulfonium 2-(1′-adamantane)carbonyloxy-1,1-difluoroethanesulfonate]	0.21
